{"sequences": {"note": "Sequences of proteins named here, by UniProt entry; tags and fusion partners are left off.", "UniProt Q7Z5R6": "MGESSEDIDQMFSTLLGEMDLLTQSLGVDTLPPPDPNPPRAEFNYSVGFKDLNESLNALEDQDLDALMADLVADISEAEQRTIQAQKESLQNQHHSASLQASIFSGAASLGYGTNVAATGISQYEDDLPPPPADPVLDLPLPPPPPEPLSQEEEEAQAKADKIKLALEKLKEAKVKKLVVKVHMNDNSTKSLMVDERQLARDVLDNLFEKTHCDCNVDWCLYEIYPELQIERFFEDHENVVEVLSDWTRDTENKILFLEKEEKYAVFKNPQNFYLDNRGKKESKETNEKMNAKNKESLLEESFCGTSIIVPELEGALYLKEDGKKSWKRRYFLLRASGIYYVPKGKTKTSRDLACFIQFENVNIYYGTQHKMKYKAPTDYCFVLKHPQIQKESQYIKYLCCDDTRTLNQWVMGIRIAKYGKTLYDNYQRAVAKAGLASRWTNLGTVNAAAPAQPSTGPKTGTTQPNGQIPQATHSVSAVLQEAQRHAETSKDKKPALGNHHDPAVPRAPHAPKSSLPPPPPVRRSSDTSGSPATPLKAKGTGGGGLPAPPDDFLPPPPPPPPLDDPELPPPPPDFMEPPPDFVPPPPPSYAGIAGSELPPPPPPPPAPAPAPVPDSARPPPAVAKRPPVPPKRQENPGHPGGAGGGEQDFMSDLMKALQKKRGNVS", "UniProt Q9Y4G6": "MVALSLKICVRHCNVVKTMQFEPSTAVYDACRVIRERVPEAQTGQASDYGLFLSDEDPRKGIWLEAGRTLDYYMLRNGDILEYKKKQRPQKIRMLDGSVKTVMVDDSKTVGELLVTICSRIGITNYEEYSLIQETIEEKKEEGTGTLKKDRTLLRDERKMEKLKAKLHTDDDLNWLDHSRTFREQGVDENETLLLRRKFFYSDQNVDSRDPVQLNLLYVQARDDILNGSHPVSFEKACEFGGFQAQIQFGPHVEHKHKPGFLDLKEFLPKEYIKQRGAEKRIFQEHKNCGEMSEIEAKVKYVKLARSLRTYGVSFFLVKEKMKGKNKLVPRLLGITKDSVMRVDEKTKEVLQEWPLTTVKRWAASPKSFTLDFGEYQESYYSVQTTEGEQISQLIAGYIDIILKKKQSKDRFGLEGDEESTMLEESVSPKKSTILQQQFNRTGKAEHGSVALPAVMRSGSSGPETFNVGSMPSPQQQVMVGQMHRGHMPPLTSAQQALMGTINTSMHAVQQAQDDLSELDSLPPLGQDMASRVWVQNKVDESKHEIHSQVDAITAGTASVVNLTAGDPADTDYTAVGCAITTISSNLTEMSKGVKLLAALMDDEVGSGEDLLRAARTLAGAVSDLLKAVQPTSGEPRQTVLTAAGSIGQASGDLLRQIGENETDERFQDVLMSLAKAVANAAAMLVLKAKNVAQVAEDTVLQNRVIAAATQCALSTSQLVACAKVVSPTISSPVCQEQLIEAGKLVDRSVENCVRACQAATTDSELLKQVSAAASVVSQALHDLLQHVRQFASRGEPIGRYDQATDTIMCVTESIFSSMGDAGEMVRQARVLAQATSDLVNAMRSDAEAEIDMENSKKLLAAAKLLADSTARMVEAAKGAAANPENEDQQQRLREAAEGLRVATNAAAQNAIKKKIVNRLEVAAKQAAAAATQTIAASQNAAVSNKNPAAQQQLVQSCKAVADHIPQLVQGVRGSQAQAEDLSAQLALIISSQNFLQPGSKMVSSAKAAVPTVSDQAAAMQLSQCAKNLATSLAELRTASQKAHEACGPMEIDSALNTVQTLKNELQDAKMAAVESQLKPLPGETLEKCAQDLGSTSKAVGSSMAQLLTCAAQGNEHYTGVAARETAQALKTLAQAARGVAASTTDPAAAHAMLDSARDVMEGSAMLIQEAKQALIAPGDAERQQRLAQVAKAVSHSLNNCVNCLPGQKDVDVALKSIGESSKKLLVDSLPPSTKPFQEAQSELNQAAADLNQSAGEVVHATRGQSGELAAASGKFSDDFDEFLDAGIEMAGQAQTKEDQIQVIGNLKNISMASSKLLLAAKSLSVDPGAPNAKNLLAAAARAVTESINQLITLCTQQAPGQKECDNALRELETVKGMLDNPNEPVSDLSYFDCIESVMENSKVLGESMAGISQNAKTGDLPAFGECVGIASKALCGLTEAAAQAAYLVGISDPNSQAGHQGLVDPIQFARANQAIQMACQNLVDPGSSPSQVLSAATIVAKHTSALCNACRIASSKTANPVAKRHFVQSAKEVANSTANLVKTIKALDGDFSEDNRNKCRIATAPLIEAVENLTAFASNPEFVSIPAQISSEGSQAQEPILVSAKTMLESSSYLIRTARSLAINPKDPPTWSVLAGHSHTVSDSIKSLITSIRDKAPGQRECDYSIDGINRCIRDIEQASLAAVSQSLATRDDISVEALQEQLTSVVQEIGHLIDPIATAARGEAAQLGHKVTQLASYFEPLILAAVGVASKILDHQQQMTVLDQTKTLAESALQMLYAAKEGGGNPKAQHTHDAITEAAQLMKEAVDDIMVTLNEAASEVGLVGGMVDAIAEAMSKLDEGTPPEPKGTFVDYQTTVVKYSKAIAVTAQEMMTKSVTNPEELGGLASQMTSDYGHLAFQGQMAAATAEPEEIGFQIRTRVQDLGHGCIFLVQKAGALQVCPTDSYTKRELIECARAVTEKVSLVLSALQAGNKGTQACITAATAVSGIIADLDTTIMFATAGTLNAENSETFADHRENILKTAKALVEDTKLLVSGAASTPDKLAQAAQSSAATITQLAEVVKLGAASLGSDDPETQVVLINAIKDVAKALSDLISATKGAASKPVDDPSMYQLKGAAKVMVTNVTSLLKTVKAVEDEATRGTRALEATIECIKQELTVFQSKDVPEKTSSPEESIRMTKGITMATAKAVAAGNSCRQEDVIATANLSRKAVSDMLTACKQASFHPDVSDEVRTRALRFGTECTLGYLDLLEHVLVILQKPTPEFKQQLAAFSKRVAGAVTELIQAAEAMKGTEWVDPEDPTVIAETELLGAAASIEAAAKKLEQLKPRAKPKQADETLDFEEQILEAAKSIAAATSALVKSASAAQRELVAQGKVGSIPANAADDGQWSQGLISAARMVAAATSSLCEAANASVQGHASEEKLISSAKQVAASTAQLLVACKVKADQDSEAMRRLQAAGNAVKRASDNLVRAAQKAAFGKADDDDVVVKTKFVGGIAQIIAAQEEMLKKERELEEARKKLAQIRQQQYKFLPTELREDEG"}, "source": "paper PMC9795039", "about": "“Kindlin2 enables EphB/ephrinB bi-directional signaling to support vascular development” (Life Science Alliance, 2022)", "target": "BirA*-FLAG-RIAM (UniProt Q7Z5R6)", "test": "proximity labelling; BioID: BirA*-FLAG baits in Flp-In T-REx HEK293 cells, tetracycline and biotin for 24 h, mass spectrometry, SAINTexpress, 1% FDR", "note": "These are yes or no findings as the source states them, for the method shown. Binding seen in cells or lysates may run through a third protein. Here binding means that the protein was enriched with, or labelled near, the bait; the list need not be complete.", "data": [{"substance": "talin2 (from UniProt Q9Y4G6 1-2542)", "values": [{"measurement": "binding", "value": "binds"}]}]}
